This is an account of results in publication PMC4267665.

No constants are given. Whether binding was seen depends on the method and setting. In cells and extracts the contact can be indirect. Some entries that bind do so weakly or less than the wild type.

In the assay the target is SETDB1 (mouse) (mouse (endogenous in NIH3T3 and embryonic fibroblasts)) (UniProt O88974). Kind of assay: co-IP; 10 ug anti-SETDB1 antibody with 100 ug whole cell extract overnight at 4°C, protein A or A/G beads, western blot; lysis buffer 0.5% NP-40, 50 mM Tris-Cl, 10% glycerol, 0.1 M EDTA, 15 mM NaCl; NIH3T3, mEF and T47D cells; T47D lysates with or without NEM, before or after agRNA transfection. For orientation: A western blot detects proteins with antibodies after separation by electrophoresis.

Regarding “AGO2 (mouse) (from UniProt Q8CJG0 1-860)”, the binding entry is on record as “binds”.
